In PubChem BioAssay AID540276 (National Center for Advancing Translational Sciences (NCATS), 2011):
In all, about 300,000 compounds went through this assay and about 5,400 (1.8%) were called active. Inconclusive results, whose numbers are uncertain, are shown with a selection of clear calls. The call rests on the fitted dose curve; tested in HEK293 cells. Potencies of inconclusive entries are doubtful fits and often do not repeat.

Assay: qHTS for inhibitors of binding or entry into cells for Marburg Virus
Settings: Marburg virus pseudotyped entry inhibition, cell reporter; series mostly up to 37.8 µM
Potency means the concentration at half of the fitted maximal effect.

Compound | Potency
CCC(C(=O)N1CCN(c2ccccc2)CC1)n1nc(C)c2sc3ccccc3c2c1=O (stereo not given) | inactive
Nc1nc2[nH]c(=O)cnc2c(=O)[nH]1 | inconclusive: 0.316 µM [inhibitor, full curve]
Nc1nc(SCc2ccc(Br)cc2)c2ncn(C3OC(CO)C(O)C3O)c2n1 (stereo not given) | inactive
C=C(C)CNC(=S)N/N=C/C1=CCC2CC1C2(C)C (stereo not given) | inconclusive: 35.5 µM [inhibitor, single point]
Cc1ccc2nc(C)c(C(=O)N/N=C/c3cccs3)cc2c1 | inconclusive: 3.16 µM [activator, partial curve, poor fit]
S=C1NCN(Cc2cccnc2)CN1Cc1ccccc1 | inactive
Clc1ccc(CSc2nnc(-c3ccccn3)n2Cc2ccco2)c(Cl)c1 | inconclusive: 18.3 µM [inhibitor, single point]
COc1ccc(OCC(=O)NC2CC(C)(C)NC(C)(C)C2)cc1 | inactive
Cn1cccc1C(C#N)c1cccc(F)c1C#N (stereo not given) | inconclusive: 1 µM [inhibitor, full curve, poor fit]
CCc1ccc(-c2cn(-c3nc(C)cc(C)n3)c(=N)o2)cc1 | inconclusive: 29.1 µM [inhibitor, single point]
O=C1NC(CCc2ccccc2)C(=O)N1Cc1ccc(Br)cc1 (stereo not given) | inconclusive: 3.55 µM [inhibitor, partial curve, poor fit]
O=C(c1ccc2c(Cl)c3c(nc2c1)CCCC3)N1CCN(c2ccccc2F)CC1 | inactive
COc1ccc2c(c1)c(C(=O)O)c(C)n2CCc1ccc(OC)c(OC)c1 | inconclusive: 7.08 µM [inhibitor, full curve]
C=C(C)C(O)/C=C/c1ccccc1OC (stereo not given) | inactive
COc1ccc(Nc2oc(-c3ccccc3)nc2C#N)cc1 | inconclusive: 35.5 µM [inhibitor, single point]
COc1ccc(/C=C2/CCc3ccccc3C2=O)cc1OC | inactive
O=S(=O)(c1cccs1)N1CCN(CC(O)COc2cc(Cl)ccc2Cl)CC1 (stereo not given) | inconclusive: 11.2 µM [inhibitor, partial curve, poor fit]
COc1ccc2ncc(OC(C)=O)cc2c1 | inconclusive: 0.794 µM [inhibitor, partial curve, poor fit]
Nc1ccc(OCc2ccccc2)cc1[N+](=O)[O-] | inconclusive: 35.5 µM [activator, single point]
Cc1ccccc1-n1c(O)c(/C=N/Nc2nc3c(c(=O)n(C)c(=O)n3C)n2C)c(=O)[nH]c1=S | inactive
Cc1cc(NC(=O)c2c(-c3c(Cl)cccc3Cl)noc2C)n(C)n1 | inactive
CCCC(=O)Nc1ccc(C(=O)/C=C/c2ccc(SC)cc2)cc1 | inconclusive: 2.24 µM [inhibitor, full curve, poor fit]
CC(Sc1nc2c(cc1C#N)CCCCC2)C(=O)O (stereo not given) | inactive
CCOc1ccc(CSC2=NCCN2)cc1Cl | active: 14.6 µM

Part of the list above in a different format.

| Compound | Potency |
| --- | --- |
| C=C(C)CNC(=S)N/N=C/C1=CCC2CC1C2(C)C (stereo not given) | inconclusive: 35.5 µM [inhibitor, single point] |
| Cc1ccc2nc(C)c(C(=O)N/N=C/c3cccs3)cc2c1 | inconclusive: 3.16 µM [activator, partial curve, poor fit] |
| S=C1NCN(Cc2cccnc2)CN1Cc1ccccc1 | inactive |
| Clc1ccc(CSc2nnc(-c3ccccn3)n2Cc2ccco2)c(Cl)c1 | inconclusive: 18.3 µM [inhibitor, single point] |
| COc1ccc(OCC(=O)NC2CC(C)(C)NC(C)(C)C2)cc1 | inactive |
| Cn1cccc1C(C#N)c1cccc(F)c1C#N (stereo not given) | inconclusive: 1 µM [inhibitor, full curve, poor fit] |
| CCc1ccc(-c2cn(-c3nc(C)cc(C)n3)c(=N)o2)cc1 | inconclusive: 29.1 µM [inhibitor, single point] |
| O=C1NC(CCc2ccccc2)C(=O)N1Cc1ccc(Br)cc1 (stereo not given) | inconclusive: 3.55 µM [inhibitor, partial curve, poor fit] |
| O=C(c1ccc2c(Cl)c3c(nc2c1)CCCC3)N1CCN(c2ccccc2F)CC1 | inactive |
| COc1ccc2c(c1)c(C(=O)O)c(C)n2CCc1ccc(OC)c(OC)c1 | inconclusive: 7.08 µM [inhibitor, full curve] |
| C=C(C)C(O)/C=C/c1ccccc1OC (stereo not given) | inactive |
| COc1ccc(Nc2oc(-c3ccccc3)nc2C#N)cc1 | inconclusive: 35.5 µM [inhibitor, single point] |
| COc1ccc(/C=C2/CCc3ccccc3C2=O)cc1OC | inactive |
| O=S(=O)(c1cccs1)N1CCN(CC(O)COc2cc(Cl)ccc2Cl)CC1 (stereo not given) | inconclusive: 11.2 µM [inhibitor, partial curve, poor fit] |
| COc1ccc2ncc(OC(C)=O)cc2c1 | inconclusive: 0.794 µM [inhibitor, partial curve, poor fit] |
| Nc1ccc(OCc2ccccc2)cc1[N+](=O)[O-] | inconclusive: 35.5 µM [activator, single point] |
| Cc1ccccc1-n1c(O)c(/C=N/Nc2nc3c(c(=O)n(C)c(=O)n3C)n2C)c(=O)[nH]c1=S | inactive |
| Cc1cc(NC(=O)c2c(-c3c(Cl)cccc3Cl)noc2C)n(C)n1 | inactive |
| CCCC(=O)Nc1ccc(C(=O)/C=C/c2ccc(SC)cc2)cc1 | inconclusive: 2.24 µM [inhibitor, full curve, poor fit] |
| CC(Sc1nc2c(cc1C#N)CCCCC2)C(=O)O (stereo not given) | inactive |

Following part:

Compound | Potency
Cc1cccn2c(=O)c3cc(S(=O)(=O)c4ccccc4)c(=N)n(Cc4ccco4)c3nc12 | inactive
COc1ccc(OC)c(NC(=S)NCc2cccs2)c1 | inconclusive: 6.31 µM [activator, single point]
CCOc1ccccc1NC(=O)c1ccc(CN2CCc3ccccc3C2)cc1 | inactive
O=C(CSc1nc2nn(-c3ccccc3)c(=O)c-2c2n1CCCCC2)NCCCc1ccccc1 | inactive
COCC(=O)N1c2nc(-c3ccco3)nn2C2(CCCCC2)[C@@H]2CCCC[C@@H]21 | inactive
COc1ccc(/C=N\NC(=O)CCN2CCN(c3ccccc3)CC2)cc1OC | inconclusive: 7.08 µM [inhibitor, partial curve, poor fit]
CCc1ccc2nc(N3C(=O)C(O)=C(C(=O)c4ccco4)C3c3cccs3)sc2c1 (stereo not given) | inconclusive: 35.5 µM [inhibitor, single point]
O=C1N(CCCCN2C(=O)C3(OCCO3)c3ccccc32)c2ccccc2C12OCCO2 | inactive
CCCN(C(=O)c1cc2c(=O)oc3ccccc3c2s1)c1ccccc1C | inactive
O=C(Nc1ccccc1)OCC1CCCO1 (stereo not given) | inconclusive: 6.31 µM [activator, single point]
Cc1ccc(NCC(=O)Nc2cccc(F)c2)cc1S(=O)(=O)N1CCCCCC1 | inconclusive: 15.8 µM [inhibitor, single point]
Cc1nc2c(c(=O)n1CCC1=CCCCC1)c1nc3ccccc3nc1n2/N=C/c1ccco1 | inconclusive: 0.224 µM [inhibitor, full curve, poor fit]
CCCCCCCCCn1ccc(=N)cc1 | inconclusive: 2 µM [inhibitor, full curve, poor fit]
Cc1ccc(C)c(N2CCN(c3nc4c(S(=O)(=O)c5ccccc5)nnn4c4ccc(Cl)cc34)CC2)c1 | inactive
O=C(NC1CCN(Cc2ccccc2)CC1)C12CC3CC(CC(C3)C1)C2 | inconclusive: 32.6 µM [inhibitor, single point]
COC(=O)COc1ccc(/C=N/NC(=O)c2ccc(N(Cc3ccccc3)S(C)(=O)=O)cc2)cc1 | inconclusive: 14.1 µM [inhibitor, partial curve, poor fit]
CCCN1CCC[C@H](c2cccc(O)c2)C1 | inconclusive: 5.62 µM [inhibitor, partial curve, poor fit]
O=c1[nH][nH]c(-c2ccccc2O)c1C(C[N+](=O)[O-])c1ccccc1 (stereo not given) | inconclusive: 1.12 µM [activator, full curve, poor fit]
COc1ccccc1OCCn1cc(C#N)c2ccccc21 | inactive
Brc1ccc(-c2cnc(-c3cccs3)o2)cc1 | inconclusive: 0.092 µM [activator, full curve, poor fit]
COc1ccc(NC(=O)Cn2c(=O)n(-c3ccc(C)c(C)c3)c(=O)c3c(C)c(C)sc32)cc1 | inactive
CCc1ccccc1NC(=O)CSc1nnc([C@@H](NC(=O)OC(C)(C)C)C(C)CC)o1 (stereo not given in full) | inconclusive: 29.1 µM [activator, single point]
OCC(O)C1OC(Nc2ccc(Br)cc2)C(O)C1O (stereo not given) | inconclusive: 35.5 µM [inhibitor, single point]
COc1ccccc1OC(C)C(=O)Nc1nc(-c2ccc(S(=O)(=O)N3CCOCC3)cc2)cs1 (stereo not given) | inconclusive: 35.5 µM [inhibitor, single point]

Compound | Potency
O=C(Nc1nccs1)C(Cl)(Cl)Cl | inactive
Cc1ccc(S(=O)(=O)Nc2cccc(NC(=O)CN3CCCCC3)c2)cc1 | inconclusive: 0.251 µM [inhibitor, full curve, poor fit]
C(=NN=C1c2ccccc2-c2ccccc21)c1c[nH]c2ccccc12 | inconclusive: 35.5 µM [inhibitor, single point]
Cc1cccc(NC(=O)CCC(=O)c2cccs2)n1 | inconclusive: 0.0891 µM [activator, full curve, poor fit]
COc1ccc(S(=O)(=O)NN(C)c2nc(C(F)(F)F)nc3ccccc23)cc1 | inconclusive: 7.08 µM [inhibitor, partial curve, poor fit]
CCOC(=O)c1ccc(NC(c2ccc(N(C)C)cc2)P(=O)(OC(C)C)OC(C)C)cc1 (stereo not given) | inconclusive: 10 µM [inhibitor, single point]
O=C(Cc1ccccc1)NCC(=O)N/N=C/c1ccc([N+](=O)[O-])s1 | inconclusive: 22.4 µM [inhibitor, single point]
Cc1ccc(NC(=O)c2cc(S(=O)(=O)Nc3ccc(C)cc3)cs2)cc1 | inconclusive: 17.8 µM [inhibitor, partial curve, poor fit]
Cn1cc(CN2CCC(CO)CC2)c(-c2ccc(Oc3ccccc3)cc2)n1 | inconclusive: 20 µM [inhibitor, partial curve, poor fit]
Cc1cc(OCc2cc(C(=O)N(C)CCc3cnn(C)c3)no2)cc(C)c1Cl | inactive
N=C1c2ccccc2CN1NC(=O)C1CC1 | inactive
Cc1nonc1NC(=O)c1ccc(Cl)c(S(=O)(=O)N2CCCCC2)c1 | inconclusive: 8.91 µM [inhibitor, partial curve, poor fit]
C=CCn1c(SCc2c(C(=O)OC)sc(N)c2C(=O)OC)nnc1-c1ccc(Br)cc1 | inconclusive: 22.4 µM [inhibitor, single point]
COc1ccccc1N(Cc1ccccc1)S(=O)(=O)c1cccc(C(=O)Nc2ccc(C)cn2)c1 | inconclusive: 14.1 µM [inhibitor, partial curve, poor fit]
NCCC(=O)N1c2ccccc2Sc2ccccc21 | inconclusive: 10 µM [inhibitor, partial curve]
COc1ccccc1NC(=O)c1c(N=Cc2c(O)ccc3ccccc23)cnn1C | inconclusive: 6.51 µM [inhibitor, full curve, poor fit]
COc1ccc(Br)cc1CN(C)CC(O)COc1ccc(Br)cc1 (stereo not given) | inconclusive: 32.6 µM [inhibitor, single point]
COc1ccc(CCNc2cc(N3CCN(C(=O)c4ccc(C)cc4)CC3)ccc2[N+](=O)[O-])cc1OC | inactive
O=C1NC(=O)C(=Cc2ccccc2[N+](=O)[O-])S1 | inconclusive: 25.1 µM [inhibitor, single point]
CC(C)C(=O)Nc1nnc(SCC(=O)NCc2cccs2)s1 | inconclusive: 6.51 µM [inhibitor, single point]
CCC(=O)N1CCc2cc(Br)cc(S(=O)(=O)CCC(=O)NCc3ccc(F)cc3)c21 | inactive
COc1ccc(Br)cc1C(=O)NC(=S)Nc1ccc(CN2CCOCC2)cc1 | inconclusive: 28.2 µM [inhibitor, single point]
